Source: the supplement of paper PMC10849652
The other results are listed elsewhere or left out.

The chains behind the UniProt entries cited, without tags or fusion partners. Where a name states a change or a piece, a line headed by the entry shows the natural chain unless it says otherwise.
UniProt P53384: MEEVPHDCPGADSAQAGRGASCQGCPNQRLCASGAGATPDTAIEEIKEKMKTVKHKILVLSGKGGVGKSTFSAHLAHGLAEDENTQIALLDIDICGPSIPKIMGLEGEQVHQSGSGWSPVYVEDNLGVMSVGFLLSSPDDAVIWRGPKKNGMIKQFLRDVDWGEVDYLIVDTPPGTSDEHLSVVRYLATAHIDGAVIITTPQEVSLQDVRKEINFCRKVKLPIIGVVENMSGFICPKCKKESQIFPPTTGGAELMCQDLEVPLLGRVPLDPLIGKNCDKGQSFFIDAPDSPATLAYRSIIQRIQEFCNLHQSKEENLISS
UniProt Q9BVL2: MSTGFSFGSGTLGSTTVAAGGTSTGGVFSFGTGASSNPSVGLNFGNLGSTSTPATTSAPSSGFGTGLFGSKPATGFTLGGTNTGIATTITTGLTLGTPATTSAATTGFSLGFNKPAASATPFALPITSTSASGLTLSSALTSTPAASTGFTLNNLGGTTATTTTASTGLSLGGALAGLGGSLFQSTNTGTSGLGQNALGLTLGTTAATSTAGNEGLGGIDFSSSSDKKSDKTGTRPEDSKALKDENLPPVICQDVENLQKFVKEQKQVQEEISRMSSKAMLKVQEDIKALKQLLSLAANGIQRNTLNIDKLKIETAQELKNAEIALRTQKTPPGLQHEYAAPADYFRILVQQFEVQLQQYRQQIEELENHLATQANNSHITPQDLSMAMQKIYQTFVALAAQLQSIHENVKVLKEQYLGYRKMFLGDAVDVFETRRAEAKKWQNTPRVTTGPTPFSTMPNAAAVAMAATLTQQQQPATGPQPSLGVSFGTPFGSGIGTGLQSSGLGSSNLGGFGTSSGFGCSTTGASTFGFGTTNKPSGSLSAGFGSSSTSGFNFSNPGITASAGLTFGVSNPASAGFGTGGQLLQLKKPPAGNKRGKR
UniProt Q02818: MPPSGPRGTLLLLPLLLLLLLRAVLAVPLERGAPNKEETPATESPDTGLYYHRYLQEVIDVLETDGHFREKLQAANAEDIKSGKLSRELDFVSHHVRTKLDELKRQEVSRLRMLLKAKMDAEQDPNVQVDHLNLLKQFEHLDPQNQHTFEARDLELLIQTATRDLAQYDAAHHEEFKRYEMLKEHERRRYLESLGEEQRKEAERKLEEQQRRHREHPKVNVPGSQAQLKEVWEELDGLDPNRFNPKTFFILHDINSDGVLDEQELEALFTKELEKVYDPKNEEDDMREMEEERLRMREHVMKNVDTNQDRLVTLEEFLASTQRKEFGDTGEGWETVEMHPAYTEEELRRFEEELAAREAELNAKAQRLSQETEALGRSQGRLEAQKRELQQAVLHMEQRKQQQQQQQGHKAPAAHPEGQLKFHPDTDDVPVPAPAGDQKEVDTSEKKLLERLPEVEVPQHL
UniProt P00480: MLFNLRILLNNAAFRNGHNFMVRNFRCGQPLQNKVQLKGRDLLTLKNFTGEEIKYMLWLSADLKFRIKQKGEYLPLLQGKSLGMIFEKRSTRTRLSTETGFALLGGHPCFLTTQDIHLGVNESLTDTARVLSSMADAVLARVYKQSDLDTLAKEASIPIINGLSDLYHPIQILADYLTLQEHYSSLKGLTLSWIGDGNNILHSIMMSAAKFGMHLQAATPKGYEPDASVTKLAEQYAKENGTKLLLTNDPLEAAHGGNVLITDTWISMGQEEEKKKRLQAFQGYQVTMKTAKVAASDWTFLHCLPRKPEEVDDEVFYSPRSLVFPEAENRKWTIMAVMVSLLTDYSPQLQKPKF
UniProt Q9BW91: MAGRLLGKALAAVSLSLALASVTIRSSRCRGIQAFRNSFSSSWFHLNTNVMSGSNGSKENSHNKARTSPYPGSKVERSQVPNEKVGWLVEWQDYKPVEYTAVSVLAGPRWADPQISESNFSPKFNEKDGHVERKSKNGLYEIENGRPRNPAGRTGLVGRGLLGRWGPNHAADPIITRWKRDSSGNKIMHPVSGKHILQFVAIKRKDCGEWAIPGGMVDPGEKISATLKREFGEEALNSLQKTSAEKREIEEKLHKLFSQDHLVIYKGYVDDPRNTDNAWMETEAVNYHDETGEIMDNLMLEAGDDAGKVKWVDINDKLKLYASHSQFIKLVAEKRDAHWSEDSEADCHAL
UniProt O43482, whole entry, looked up: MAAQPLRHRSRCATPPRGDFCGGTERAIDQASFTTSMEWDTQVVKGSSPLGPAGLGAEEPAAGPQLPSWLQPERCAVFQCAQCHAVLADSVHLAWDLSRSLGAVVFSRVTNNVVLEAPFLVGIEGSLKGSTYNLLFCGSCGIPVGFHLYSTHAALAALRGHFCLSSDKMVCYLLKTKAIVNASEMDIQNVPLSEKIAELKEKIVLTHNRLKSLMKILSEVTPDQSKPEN
UniProt P61970, whole entry, looked up: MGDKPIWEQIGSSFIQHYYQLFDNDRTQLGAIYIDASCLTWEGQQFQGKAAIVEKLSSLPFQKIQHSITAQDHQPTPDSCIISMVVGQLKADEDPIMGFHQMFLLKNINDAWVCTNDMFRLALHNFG
UniProt Q7Z417: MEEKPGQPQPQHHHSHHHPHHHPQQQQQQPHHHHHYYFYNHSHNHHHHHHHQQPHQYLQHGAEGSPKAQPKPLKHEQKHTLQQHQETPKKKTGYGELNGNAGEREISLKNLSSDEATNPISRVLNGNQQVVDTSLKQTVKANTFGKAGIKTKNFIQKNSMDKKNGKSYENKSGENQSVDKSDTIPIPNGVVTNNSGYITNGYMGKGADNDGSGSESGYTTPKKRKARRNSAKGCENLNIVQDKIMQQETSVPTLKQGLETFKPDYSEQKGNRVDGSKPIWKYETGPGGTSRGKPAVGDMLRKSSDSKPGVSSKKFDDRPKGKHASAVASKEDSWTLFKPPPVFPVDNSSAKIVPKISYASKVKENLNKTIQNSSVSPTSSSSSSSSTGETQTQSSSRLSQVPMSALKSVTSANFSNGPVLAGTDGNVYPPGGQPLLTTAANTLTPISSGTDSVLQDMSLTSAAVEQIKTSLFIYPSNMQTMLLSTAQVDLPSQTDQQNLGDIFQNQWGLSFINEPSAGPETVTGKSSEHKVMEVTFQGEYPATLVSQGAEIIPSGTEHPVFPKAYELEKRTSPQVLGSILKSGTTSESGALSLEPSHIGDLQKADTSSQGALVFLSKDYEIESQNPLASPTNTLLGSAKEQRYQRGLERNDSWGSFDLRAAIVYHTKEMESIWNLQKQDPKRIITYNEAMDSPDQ
UniProt Q01804: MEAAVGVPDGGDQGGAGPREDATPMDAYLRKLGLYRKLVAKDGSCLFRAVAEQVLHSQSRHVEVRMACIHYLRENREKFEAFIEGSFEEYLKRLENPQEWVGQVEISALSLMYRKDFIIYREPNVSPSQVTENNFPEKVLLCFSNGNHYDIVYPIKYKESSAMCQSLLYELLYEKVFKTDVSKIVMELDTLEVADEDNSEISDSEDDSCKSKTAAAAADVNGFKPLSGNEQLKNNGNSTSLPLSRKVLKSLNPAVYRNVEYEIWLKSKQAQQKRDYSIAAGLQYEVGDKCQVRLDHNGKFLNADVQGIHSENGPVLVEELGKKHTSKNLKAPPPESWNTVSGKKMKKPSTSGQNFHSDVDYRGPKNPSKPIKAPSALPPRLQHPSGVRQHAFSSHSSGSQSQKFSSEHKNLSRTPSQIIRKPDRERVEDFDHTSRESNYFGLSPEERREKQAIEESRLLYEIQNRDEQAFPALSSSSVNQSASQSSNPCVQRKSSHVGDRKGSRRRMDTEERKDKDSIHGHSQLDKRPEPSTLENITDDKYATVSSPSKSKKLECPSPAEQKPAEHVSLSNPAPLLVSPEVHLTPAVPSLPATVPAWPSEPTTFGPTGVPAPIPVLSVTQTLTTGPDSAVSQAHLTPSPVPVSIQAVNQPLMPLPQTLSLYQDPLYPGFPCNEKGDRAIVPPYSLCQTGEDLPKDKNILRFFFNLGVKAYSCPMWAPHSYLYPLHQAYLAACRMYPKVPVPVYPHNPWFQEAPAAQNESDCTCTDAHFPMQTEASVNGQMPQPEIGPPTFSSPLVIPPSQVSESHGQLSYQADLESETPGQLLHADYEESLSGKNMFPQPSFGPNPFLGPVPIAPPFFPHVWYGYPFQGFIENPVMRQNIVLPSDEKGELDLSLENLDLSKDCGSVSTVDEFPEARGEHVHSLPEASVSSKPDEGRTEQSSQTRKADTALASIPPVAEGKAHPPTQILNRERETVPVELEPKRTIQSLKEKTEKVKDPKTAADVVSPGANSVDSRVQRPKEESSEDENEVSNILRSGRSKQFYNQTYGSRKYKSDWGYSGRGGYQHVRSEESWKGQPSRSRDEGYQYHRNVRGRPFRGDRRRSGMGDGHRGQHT
UniProt P49790, whole entry, looked up: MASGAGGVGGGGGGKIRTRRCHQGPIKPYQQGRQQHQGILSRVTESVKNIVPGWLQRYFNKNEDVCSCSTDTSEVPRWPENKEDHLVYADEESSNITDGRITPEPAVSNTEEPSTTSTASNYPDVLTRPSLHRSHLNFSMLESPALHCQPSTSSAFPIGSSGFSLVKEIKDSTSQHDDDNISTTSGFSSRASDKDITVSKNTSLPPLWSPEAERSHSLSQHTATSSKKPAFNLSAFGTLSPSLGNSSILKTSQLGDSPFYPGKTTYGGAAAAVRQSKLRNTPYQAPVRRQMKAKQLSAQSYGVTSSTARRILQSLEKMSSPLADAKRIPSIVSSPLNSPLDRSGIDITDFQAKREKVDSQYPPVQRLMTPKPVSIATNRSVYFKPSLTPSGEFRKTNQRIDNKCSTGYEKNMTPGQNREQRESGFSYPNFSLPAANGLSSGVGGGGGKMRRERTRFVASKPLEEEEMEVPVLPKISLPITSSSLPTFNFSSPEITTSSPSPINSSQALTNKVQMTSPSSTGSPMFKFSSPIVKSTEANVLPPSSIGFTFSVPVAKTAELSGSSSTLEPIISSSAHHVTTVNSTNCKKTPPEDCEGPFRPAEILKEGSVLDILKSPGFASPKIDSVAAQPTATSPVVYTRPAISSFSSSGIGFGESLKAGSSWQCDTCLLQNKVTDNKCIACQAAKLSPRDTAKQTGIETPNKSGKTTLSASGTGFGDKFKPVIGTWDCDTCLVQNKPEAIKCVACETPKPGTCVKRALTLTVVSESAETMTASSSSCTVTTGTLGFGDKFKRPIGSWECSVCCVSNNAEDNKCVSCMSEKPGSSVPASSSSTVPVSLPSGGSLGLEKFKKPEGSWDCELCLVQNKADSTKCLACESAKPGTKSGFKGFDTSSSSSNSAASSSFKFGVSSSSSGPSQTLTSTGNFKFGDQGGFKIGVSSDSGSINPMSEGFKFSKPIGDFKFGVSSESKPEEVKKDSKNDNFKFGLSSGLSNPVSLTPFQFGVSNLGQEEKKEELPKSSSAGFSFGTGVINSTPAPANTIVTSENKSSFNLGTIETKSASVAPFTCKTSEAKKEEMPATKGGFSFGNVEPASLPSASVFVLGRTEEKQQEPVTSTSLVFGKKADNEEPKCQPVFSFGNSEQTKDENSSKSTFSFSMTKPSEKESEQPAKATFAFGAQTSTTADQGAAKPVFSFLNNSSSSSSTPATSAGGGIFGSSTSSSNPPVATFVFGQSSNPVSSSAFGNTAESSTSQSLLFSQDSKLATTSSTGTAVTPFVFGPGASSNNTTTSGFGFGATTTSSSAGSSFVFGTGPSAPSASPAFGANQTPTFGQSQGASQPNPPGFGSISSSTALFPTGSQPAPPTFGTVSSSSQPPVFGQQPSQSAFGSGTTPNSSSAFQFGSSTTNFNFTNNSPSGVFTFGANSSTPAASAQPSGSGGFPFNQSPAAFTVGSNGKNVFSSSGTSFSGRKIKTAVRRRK
UniProt Q96SU4: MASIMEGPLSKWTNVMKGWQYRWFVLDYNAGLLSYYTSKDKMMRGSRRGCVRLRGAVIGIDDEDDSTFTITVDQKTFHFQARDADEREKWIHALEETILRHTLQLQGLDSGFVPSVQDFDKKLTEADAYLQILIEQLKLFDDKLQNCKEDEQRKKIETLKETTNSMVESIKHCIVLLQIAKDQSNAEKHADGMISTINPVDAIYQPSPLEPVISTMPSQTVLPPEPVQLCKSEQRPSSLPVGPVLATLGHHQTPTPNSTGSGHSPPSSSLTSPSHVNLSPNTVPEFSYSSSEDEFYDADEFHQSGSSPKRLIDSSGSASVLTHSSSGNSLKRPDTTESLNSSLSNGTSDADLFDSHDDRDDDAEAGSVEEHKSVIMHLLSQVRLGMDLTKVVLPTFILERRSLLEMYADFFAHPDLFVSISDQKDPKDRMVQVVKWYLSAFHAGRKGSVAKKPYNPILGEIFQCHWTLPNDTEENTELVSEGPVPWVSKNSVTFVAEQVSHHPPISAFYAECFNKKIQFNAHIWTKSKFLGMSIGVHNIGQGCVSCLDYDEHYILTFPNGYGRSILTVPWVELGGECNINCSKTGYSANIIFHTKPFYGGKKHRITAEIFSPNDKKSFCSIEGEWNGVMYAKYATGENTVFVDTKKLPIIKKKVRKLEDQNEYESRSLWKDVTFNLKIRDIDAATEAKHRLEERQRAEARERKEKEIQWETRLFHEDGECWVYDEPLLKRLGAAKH

How the values were obtained:
Assay in all cases: log2 fold change, soluble protein after heating vs DMSO (PISA); higher = thermal stabilisation; K562 cells, 10 uM, 30 min; active = over 0.2 and 3.5 SD of the protein, either way, in both replicates (recomputed)
bafetinib = compound: Cc1ccc(NC(=O)c2ccc(CN3CC[C@H](N(C)C)C3)c(C(F)(F)F)c2)cc1Nc1nccc(-c2cncnc2)n1 [bafetinib]
Summary of the method: (§1)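 Quantification of soluble protein used TMTpro 16plex LC-MS/MS, with channel sums equalised. Samples were the supernatant after 21,000xg for 90 min of pooled aliquots from K562 cells (2×10^6 cells/mL) treated with 10 μM compound for 30 min, heated for 3 min over 48°C-58°C, and extracted in PBS with 0.5% NP-40 at 4°C. Values, from duplicates, describe thermal stability against control samples on a log2 fold-change scale.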

[1] = compound: Cc1cccc(CC(=O)N2CCc3c2ccc(-c2cn(C)c4ncnc(N)c24)c3F)n1
Summary of the method: as §1

nilotinib = compound: Cc1cn(-c2cc(NC(=O)c3ccc(C)c(Nc4nccc(-c5cccnc5)n4)c3)cc(C(F)(F)F)c2)cn1 [nilotinib]
Summary of the method: as §1

[2] = compound: Cc1nc(Nc2n[nH]c3c2CN(C(=O)N[C@H](CN(C)C)c2ccccc2)C3(C)C)c2sccc2n1
Summary of the method: as §1

dasatinib = compound: Cc1nc(Nc2ncc(C(=O)Nc3c(C)cccc3Cl)s2)cc(N2CCN(CCO)CC2)n1 [dasatinib]
Summary of the method: as §1

[3] = compound: Cc1ncc(-c2ccnc(Nc3ccc(S(C)(=O)=O)cc3)n2)n1C(C)C
Summary of the method: as §1

[4] = compound: Cn1cc(-c2ccc3c(c2)CCN3C(=O)Cc2cccc(C(F)(F)F)c2)c2c(N)ncnc21
Summary of the method: as §1

[5] = compound: Cn1cc(-c2ccc3nnc(C(F)(F)c4ccc5ncccc5c4)n3n2)cn1
Summary of the method: as §1

tipifarnib = compound: Cn1cncc1[C@@](N)(c1ccc(Cl)cc1)c1ccc2c(c1)c(-c1cccc(Cl)c1)cc(=O)n2C [tipifarnib]
Summary of the method: as §1

mubritinib = compound: FC(F)(F)c1ccc(/C=C/c2nc(COc3ccc(CCCCn4ccnn4)cc3)co2)cc1 [mubritinib]
Summary of the method: as §1

[6] = compound: NC(=O)Nc1cc(-c2cccc(F)c2)sc1C(=O)N[C@H]1CCCNC1
Summary of the method: as §1

[7] = compound: NC(=O)c1cnc(N[C@@H]2CCCC[C@@H]2N)nc1Nc1cccc(-n2nccn2)c1
Summary of the method: as §1

[8] = compound: NC1(c2ccc(-c3nc4ccn5c(=O)[nH]nc5c4cc3-c3ccccc3)cc2)CCC1
Summary of the method: as §1

[9] = compound: NCC(=O)Nc1ccc(-n2nc(C(F)(F)F)cc2-c2ccc3c(ccc4ccccc43)c2)cc1
Summary of the method: as §1

entinostat = compound: Nc1ccccc1NC(=O)c1ccc(CNC(=O)OCc2cccnc2)cc1 [entinostat]
Summary of the method: as §1

vorinostat = compound: O=C(CCCCCCC(=O)Nc1ccccc1)NO [vorinostat]
Summary of the method: as §1

citarinostat = compound: O=C(CCCCCCNC(=O)c1cnc(N(c2ccccc2)c2ccccc2Cl)nc1)NO [citarinostat]
Summary of the method: as §1

silmitasertib = compound: O=C(O)c1ccc2c(c1)nc(Nc1cccc(Cl)c1)c1ccncc12 [silmitasertib]
Summary of the method: as §1

[10] = compound: O=C1NC(=O)C(c2cnc3ccccn23)=C1c1cn2c3c(cc(F)cc13)CN(C(=O)N1CCCCC1)CC2
Summary of the method: as §1

[11] = compound: c1cc(OCCN2CCCCC2)cc(-c2n[nH]c3ccc(-c4nnc[nH]4)cc23)c1
Summary of the method: as §1

Row | Target | log2 fold change (bafetinib) | log2 fold change [1] | log2 fold change (nilotinib) | log2 fold change [2] | log2 fold change (dasatinib) | log2 fold change [3] | log2 fold change [4] | log2 fold change [5] | log2 fold change (tipifarnib) | log2 fold change (mubritinib) | log2 fold change [6] | log2 fold change [7] | log2 fold change [8] | log2 fold change [9] | log2 fold change (entinostat) | log2 fold change (vorinostat) | log2 fold change (citarinostat) | log2 fold change (silmitasertib) | log2 fold change [10] | log2 fold change [11]
1 | NUBP1 (UniProt P53384) | inactive: 0.008 | inactive: -0.054 | inactive: -0.051 | inactive: 0.013 | inactive: -0.081 | inactive: -0.021 | inactive: 0.068 | inactive: 0.07 | inactive: -0.078 | inactive: -0.001 | inactive: -0.069 | inactive: -0.032 | inactive: -0.114 | inactive: -0.068 | inactive: 0 | inactive: 0.053 | inactive: 0.057 | inactive: -0.045 | inactive: -0.027 | inactive: -0.004
2 | NUP58 (UniProt Q9BVL2) | inactive: -0.037 | inactive: -0.03 | inactive: -0.024 | inactive: 0.005 | inactive: 0.003 | inactive: 0.024 | inactive: 0.023 | inactive: -0.018 | inactive: 0.031 | inactive: 0.038 | inactive: -0.052 | inactive: -0.054 | inactive: -0.004 | inactive: -0.068 | inactive: 0.004 | inactive: -0.005 | inactive: 0.034 | inactive: -0.02 | inactive: -0.027 | inactive: -0.043
3 | NUP214 isoform 5 (UniProt P35658) | inactive: 0.015 | inactive: 0.049 | inactive: -0.032 | inactive: -0.056 | inactive: -0.029 | inactive: -0.046 | inactive: -0.091 | inactive: -0.038 | inactive: -0.017 | inactive: 0.036 | inactive: -0.019 | inactive: -0.039 | inactive: 0.001 | inactive: -0.031 | inactive: 0.024 | inactive: 0.027 | inactive: 0.058 | inactive: 0.168 | inactive: 0.113 | inactive: -0.038
4 | NUS1 (UniProt Q96E22) | inactive: 0.004 | inactive: -0.032 | inactive: 0.013 | inactive: 0.061 | inactive: 0.019 | inactive: -0.003 | inactive: 0.024 | inactive: -0.031 | inactive: 0.016 | inactive: -0.005 | inactive: 0.021 | inactive: -0.215 | inactive: -0.013 | inactive: -0.053 | inactive: -0.03 | inactive: -0.008 | inactive: -0.017 | inactive: 0.097 | inactive: -0.066 | inactive: -0.011
5 | NUCB1 (UniProt Q02818) | inactive: -0.057 | inactive: -0.029 | inactive: 0.027 | inactive: 0.012 | inactive: 0.042 | inactive: -0.026 | inactive: 0.007 | inactive: -0.021 | inactive: 0.039 | inactive: -0.031 | inactive: 0.028 | inactive: -0.004 | inactive: 0.008 | inactive: 0.027 | inactive: -0.011 | inactive: 0.009 | inactive: -0.012 | inactive: 0.009 | inactive: -0.01 | inactive: -0.001
6 | OTC (UniProt P00480) | inactive: -0.053 | inactive: -0.158 | inactive: -0.313 | inactive: 0.106 | inactive: 0.107 | inactive: -0.054 | inactive: -0.166 | inactive: 0.085 | inactive: 0.049 | inactive: -0.076 | inactive: -0.101 | inactive: -0.373 | inactive: -0.555 | inactive: -0.417 | inactive: -0.069 | inactive: -0.114 | inactive: -0.127 | inactive: 0.204 | inactive: -0.08 | inactive: -0.246
7 | NUDT9 (UniProt Q9BW91) | inactive: 0.006 | inactive: -0.031 | inactive: 0.018 | inactive: -0.016 | inactive: -0.047 | inactive: 0.031 | inactive: -0.012 | inactive: -0.014 | inactive: -0.014 | inactive: 0.017 | inactive: 0.014 | inactive: -0.01 | inactive: -0.124 | inactive: -0.025 | inactive: 0.014 | inactive: -0.002 | inactive: 0.034 | inactive: 0.005 | inactive: -0.033 | inactive: 0.037
8 | NSUN4 (UniProt Q96CB9) | inactive: 0.107 | inactive: 0.026 | inactive: 0.078 | inactive: -0.034 | inactive: -0.042 | inactive: 0.046 | inactive: -0.055 | inactive: -0.052 | inactive: 0.019 | inactive: -0.016 | inactive: -0.037 | inactive: 0.032 | inactive: 0.092 | inactive: 0.006 | inactive: -0.002 | inactive: -0.016 | inactive: -0.057 | inactive: -0.029 | inactive: 0.126 | inactive: -0.068
9 | NUP107 (UniProt P57740) | inactive: -0.013 | active: 0.716 | inactive: -0.027 | inactive: -0.012 | inactive: -0.12 | inactive: -0.145 | inactive: -0.077 | inactive: -0.008 | inactive: -0.026 | inactive: -0.036 | inactive: -0.009 | inactive: -0.022 | inactive: 0.056 | inactive: -0.032 | inactive: -0.039 | inactive: 0.416 | inactive: 0.016 | inactive: 0.085 | inactive: 0.045 | inactive: -0.109
10 | OIP5 (UniProt O43482) | inactive: -0.085 | inactive: -0.168 | inactive: 0.078 | inactive: 0.068 | inactive: 0.052 | inactive: -0.029 | inactive: 0.037 | inactive: 0.194 | inactive: 0.016 | inactive: 0.015 | inactive: -0.046 | inactive: -0.038 | inactive: 0.007 | inactive: 0.012 | inactive: -0.005 | inactive: -0.06 | inactive: 0.066 | inactive: -0.03 | inactive: -0.13 | inactive: -0.113
11 | NUTF2 (UniProt P61970) | inactive: -0.031 | inactive: 0.035 | inactive: 0.084 | inactive: -0.008 | inactive: -0.051 | inactive: -0.016 | inactive: 0.084 | inactive: 0.129 | inactive: -0.066 | inactive: 0.044 | inactive: 0.041 | inactive: 0.07 | inactive: 0.016 | inactive: 0.081 | inactive: -0.033 | inactive: -0.009 | inactive: 0.053 | inactive: -0.064 | inactive: 0.016 | inactive: 0.006
12 | NUFIP2 (UniProt Q7Z417) | inactive: 0.063 | inactive: -0.041 | inactive: 0.071 | inactive: 0.097 | inactive: 0.102 | inactive: -0.039 | inactive: -0.112 | inactive: -0.123 | inactive: 0.048 | inactive: -0.054 | inactive: 0.087 | inactive: 0.056 | inactive: 0.103 | inactive: 0.043 | inactive: -0.012 | inactive: -0.026 | inactive: -0.028 | inactive: 0.014 | inactive: 0.1 | inactive: -0.093
13 | OTUD4 (UniProt Q01804) | inactive: 0.069 | inactive: -0.016 | inactive: 0.037 | inactive: -0.039 | inactive: 0.046 | inactive: -0.077 | inactive: -0.082 | inactive: -0.09 | inactive: 0.064 | inactive: -0.024 | inactive: 0.006 | inactive: 0.026 | inactive: 0.071 | inactive: 0.001 | inactive: -0.051 | inactive: 0.016 | inactive: -0.016 | inactive: 0.02 | inactive: 0.033 | inactive: -0.061
14 | NUP35 (UniProt Q8NFH5) | inactive: 0.008 | inactive: -0.009 | inactive: -0.012 | inactive: -0.002 | inactive: -0.077 | inactive: 0.032 | inactive: -0.038 | inactive: 0.033 | inactive: -0.022 | inactive: -0.005 | inactive: -0.029 | inactive: -0.056 | inactive: -0.035 | inactive: -0.044 | inactive: 0.048 | inactive: 0.056 | inactive: -0.034 | inactive: 0.022 | inactive: -0.072 | inactive: -0.084
15 | NUP153 (UniProt P49790) | inactive: -0.088 | inactive: -0.02 | inactive: 0.032 | inactive: -0.021 | inactive: 0.042 | inactive: -0.019 | inactive: -0.022 | inactive: -0.021 | inactive: 0.048 | inactive: -0.006 | inactive: 0.054 | inactive: 0.015 | inactive: -0.002 | inactive: 0.005 | inactive: -0.01 | inactive: 0.018 | inactive: 0.019 | inactive: 0.088 | inactive: 0.025 | inactive: -0.105
16 | OSBPL9 (UniProt Q96SU4) | inactive: 0.149 | inactive: 0.033 | inactive: 0.156 | inactive: -0.191 | inactive: 0.403 | inactive: -0.171 | inactive: 0.023 | inactive: -0.112 | inactive: -0.282 | inactive: 0.075 | inactive: 0.004 | inactive: -0.19 | inactive: -0.147 | inactive: -0.015 | inactive: 0.047 | inactive: 0.073 | inactive: 0.02 | inactive: 0.147 | inactive: 0.231 | inactive: -0.279

Record cards (already shown). Values in the order: log2 fold change (bafetinib)	log2 fold change [1]	log2 fold change (nilotinib)	log2 fold change [2]	log2 fold change (dasatinib)	log2 fold change [3]	log2 fold change [4]	log2 fold change [5]	log2 fold change (tipifarnib)	log2 fold change (mubritinib)	log2 fold change [6]	log2 fold change [7]	log2 fold change [8]	log2 fold change [9]	log2 fold change (entinostat)	log2 fold change (vorinostat)	log2 fold change (citarinostat)	log2 fold change (silmitasertib)	log2 fold change [10]	log2 fold change [11]
NUP107 (UniProt P57740) as listed: inactive: -0.013	active: 0.716	inactive: -0.027	inactive: -0.012	inactive: -0.12	inactive: -0.145	inactive: -0.077	inactive: -0.008	inactive: -0.026	inactive: -0.036	inactive: -0.009	inactive: -0.022	inactive: 0.056	inactive: -0.032	inactive: -0.039	inactive: 0.416	inactive: 0.016	inactive: 0.085	inactive: 0.045	inactive: -0.109
NUFIP2 (UniProt Q7Z417) as listed: inactive: 0.063	inactive: -0.041	inactive: 0.071	inactive: 0.097	inactive: 0.102	inactive: -0.039	inactive: -0.112	inactive: -0.123	inactive: 0.048	inactive: -0.054	inactive: 0.087	inactive: 0.056	inactive: 0.103	inactive: 0.043	inactive: -0.012	inactive: -0.026	inactive: -0.028	inactive: 0.014	inactive: 0.1	inactive: -0.093
